Data: patent publication US7897630B2, “5-aryl isoxazolines for controlling invertebrate pests” (E.I. du Pont de Nemours and Company, priority 2005, dated 2011)
Some entries share one result that the patent states for a list of compounds.

How the values were obtained:
[1] = system: diamondback moth (Plutella xylostella); experiment: Test A: control of diamondback moth on radish plant, foliar spray; type: in vivo; details: sprayed at 250 ppm; radish plant with neonate larvae; assessed after 6 days; criterion met by feeding damage <=20% or mortality >=80%
[2] = system: fall armyworm (Spodoptera frugiperda); experiment: Test B: control of fall armyworm on corn (maize) plant, foliar spray; type: in vivo; details: sprayed at 250 ppm; corn plant with 1-day-old larvae; rated as in Test A; criterion met by feeding damage <=20% or mortality >=80%

Row | SMILES | control efficacy (20% or less feeding damage or 80% or more mortality) [1] | control efficacy (20% or less feeding damage or 80% or more mortality) [2]
1 | FC(F)(F)C1(c2cc(Cl)cc(Cl)c2)CC(c2ccc(-n3cccn3)cc2)=NO1 (racemic) [Compound 1] | ≥ 80% | ≥ 80%
2 | FC(F)(F)C1(c2cc(Cl)cc(Cl)c2)CC(c2ccc(-c3ccccn3)cc2)=NO1 (racemic) [Compound 3] | ≥ 80% | –
3 | Cc1nn(-c2ccc(C3=NOC(c4cc(Cl)cc(Cl)c4)(C(F)(F)F)C3)cc2)cc1Br (racemic) [Compound 11] | – | ≥ 80%
4 | FC(F)(F)C1(c2ccccc2)CC(c2ccc(-n3cncn3)cc2)=NO1 (racemic) [Compound 21] | ≥ 80% | ≥ 80%
5 | FC(F)(F)C1(c2cccc(Cl)c2)CC(c2ccc(-n3cncn3)cc2)=NO1 (racemic) [Compound 23] | ≥ 80% | ≥ 80%
6 | Fc1cc(F)cc(C2(C(F)(F)F)CC(c3ccc(-n4cncn4)cc3)=NO2)c1 (racemic) [Compound 25] | ≥ 80% | ≥ 80%
7 | FC(F)(F)C1(c2ccccc2Cl)CC(c2ccc(-n3cncn3)cc2)=NO1 (racemic) [Compound 27] | ≥ 80% | ≥ 80%
8 | Fc1ccc(Cl)cc1C1(C(F)(F)F)CC(c2ccc(-n3cncn3)cc2)=NO1 (racemic) [Compound 28] | ≥ 80% | ≥ 80%
9 | FC(F)(F)C1(c2cc(Cl)cc(Cl)c2)CC(c2ccc(-n3cccc3)cc2)=NO1 (racemic) [Compound 29] | – | ≥ 80%
10 | FC(F)(F)C1(c2cc(Cl)cc(Cl)c2)CC(c2ccc(-n3cncn3)cc2Cl)=NO1 (racemic) [Compound 30] | ≥ 80% | ≥ 80%
11 | FC(F)(F)C1(c2cc(Cl)cc(Cl)c2)CC(c2ccc(N3CCOCC3)cc2)=NO1 (racemic) [Compound 33] | – | ≥ 80%
12 | CCC1(c2cc(Cl)cc(Cl)c2)CC(c2ccc(-n3cncn3)cc2)=NO1 (racemic) [Compound 34] | ≥ 80% | ≥ 80%
13 | O=[N+]([O-])c1cc(C2=NOC(c3cc(Cl)cc(Cl)c3)(C(F)(F)F)C2)ccc1-n1cccn1 (racemic) [Compound 40] | ≥ 80% | ≥ 80%
14 | Cc1cc(C)cc(C2(C(F)(F)F)CC(c3ccc(-n4cncn4)cc3)=NO2)c1 (racemic) [Compound 45] | ≥ 80% | ≥ 80%
15 | Cc1cc(Br)cc(C2(C(F)(F)F)CC(c3ccc(-n4cncn4)cc3)=NO2)c1 (racemic) [Compound 46] | ≥ 80% | ≥ 80%
16 | COc1cc(Br)cc(C2(C(F)(F)F)CC(c3ccc(-n4cncn4)cc3)=NO2)c1 (racemic) [Compound 48] | ≥ 80% | ≥ 80%
17 | N#Cc1cccc(C2(C(F)(F)F)CC(c3ccc(-n4cncn4)cc3)=NO2)c1 (racemic) [Compound 50] | ≥ 80% | ≥ 80%
18 | N#Cc1cc(C#N)cc(C2(C(F)(F)F)CC(c3ccc(-n4cncn4)cc3)=NO2)c1 (racemic) [Compound 52] | ≥ 80% | ≥ 80%
19 | N#Cc1cc(C2(C(F)(F)F)CC(c3ccc(-n4cncn4)cc3)=NO2)ccc1F (racemic) [Compound 53] | ≥ 80% | ≥ 80%
20 | Fc1c(Br)cccc1C1(C(F)(F)F)CC(c2ccc(-n3cncn3)cc2)=NO1 (racemic) [Compound 56] | ≥ 80% | ≥ 80%
21 | N#Cc1cc(C2=NOC(c3cc(Cl)cc(Cl)c3)(C(F)(F)F)C2)ccc1-n1cccn1 (racemic) [Compound 57] | ≥ 80% | ≥ 80%
22 | Nc1cc(C2=NOC(c3cc(Cl)cc(Cl)c3)(C(F)(F)F)C2)ccc1-n1cncn1 (racemic) [Compound 58] | – | ≥ 80%
23 | CC(=O)Nc1cc(C2=NOC(c3cc(Cl)cc(Cl)c3)(C(F)(F)F)C2)ccc1-n1cncn1 (racemic) [Compound 59] | ≥ 80% | ≥ 80%
24 | COc1cc(C2=NOC(c3cc(Cl)cc(Cl)c3)(C(F)(F)F)C2)ccc1-n1cncn1 (racemic) [Compound 62] | ≥ 80% | ≥ 80%

Row | SMILES | control efficacy (20% or less feeding damage or 80% or more mortality) [1] | control efficacy (20% or less feeding damage or 80% or more mortality) [2]
25 | NC(=O)c1cc(C2=NOC(c3cc(Cl)cc(Cl)c3)(C(F)(F)F)C2)ccc1-n1cncn1 (racemic) [Compound 64] | ≥ 80% | –
26 | N#Cc1ncn(-c2ccc(C3=NOC(c4cc(Cl)cc(Cl)c4)(C(F)(F)F)C3)cc2C#N)n1 (racemic) [Compound 68] | ≥ 80% | ≥ 80%
27 | FC(F)(F)C1(c2cc(Cl)cc(Cl)c2)CC(c2ccc(-n3cnnc3)cc2)=NO1 (racemic) [Compound 80] | ≥ 80% | ≥ 80%
28 | FC(F)(F)C1(c2cc(Cl)cc(Cl)c2)CC(c2ccc(-c3cncnc3)cc2)=NO1 (racemic) [Compound 86] | ≥ 80% | ≥ 80%
29 | FC(F)(F)C1(c2cc(Cl)cc(Cl)c2)CC(c2ccc(-c3cnccn3)cc2)=NO1 (racemic) [Compound 87] | ≥ 80% | –
30 | CSc1ccc(C2=NOC(c3cc(Cl)cc(Cl)c3)(C(F)(F)F)C2)cc1C#N (racemic) [Compound 206] | ≥ 80% | ≥ 80%
31 | FC(F)(F)C1(c2cc(Cl)cc(Cl)c2)CC(c2ccc(-n3cncn3)cc2)=NO1 (single isomer, unassigned) [Compound 43] | – | ≥ 80%
32 | Cc1cc(C2=NOC(c3cc(Cl)cc(Cl)c3)(C(F)(F)F)C2)ccc1S(=O)(=O)NC(C)C (stereo not shown) [Compound 102] | ≥ 80% | –
33 | Cc1cc(C2=NOC(c3cc(Cl)cc(Cl)c3)(C(F)(F)F)C2)ccc1S(=O)(=O)NCC(F)(F)F (stereo not shown) [Compound 103] | ≥ 80% | –
34 | CCC(C)NS(=O)(=O)c1ccc(C2=NOC(c3cc(Cl)cc(Cl)c3)(C(F)(F)F)C2)cc1C (stereo not shown) [Compound 105] | ≥ 80% | ≥ 80%
35 | Cc1cc(C2=NOC(c3cc(Cl)cc(Cl)c3)(C(F)(F)F)C2)ccc1S(=O)(=O)NCC#N (stereo not shown) [Compound 109] | ≥ 80% | –
36 | Cc1cc(C2=NOC(c3cc(Cl)cc(Cl)c3)(C(F)(F)F)C2)ccc1S(=O)(=O)N(C)Cc1ccccc1 (stereo not shown) [Compound 110] | – | ≥ 80%
37 | CSCC(C)(C)NS(=O)(=O)c1ccc(C2=NOC(c3cc(Cl)cc(Cl)c3)(C(F)(F)F)C2)cc1C (stereo not shown) [Compound 112] | ≥ 80% | ≥ 80%
38 | Cc1cc(C2=NOC(c3cc(Cl)cc(Cl)c3)(C(F)(F)F)C2)ccc1S(=O)(=O)NCc1ccccn1 (stereo not shown) [Compound 113] | ≥ 80% | ≥ 80%
39 | O=S(=O)(NCc1ccccn1)c1ccc(C2=NOC(c3cc(Cl)cc(Cl)c3)(C(F)(F)F)C2)cc1 (stereo not shown) [Compound 114] | ≥ 80% | –
40 | CC(C)NS(=O)(=O)c1ccc(C2=NOC(c3cc(Cl)cc(Cl)c3)(C(F)(F)F)C2)cc1 (stereo not shown) [Compound 115] | ≥ 80% | ≥ 80%
41 | N#CCNS(=O)(=O)c1ccc(C2=NOC(c3cc(Cl)cc(Cl)c3)(C(F)(F)F)C2)cc1 (stereo not shown) [Compound 116] | ≥ 80% | –
42 | O=S(=O)(NCC(F)(F)F)c1ccc(C2=NOC(c3cc(Cl)cc(Cl)c3)(C(F)(F)F)C2)cc1 (stereo not shown) [Compound 117] | ≥ 80% | ≥ 80%
43 | CNS(=O)(=O)c1ccc(C2=NOC(c3cc(Cl)cc(Cl)c3)(C(F)(F)F)C2)cc1 (stereo not shown) [Compound 118] | ≥ 80% | ≥ 80%
44 | Cc1cc(C2=NOC(c3cc(Cl)cc(Cl)c3)(C(F)(F)F)C2)ccc1S(N)(=O)=O (stereo not shown) [Compound 119] | ≥ 80% | ≥ 80%
45 | C#CCNS(=O)(=O)c1ccc(C2=NOC(c3cc(Cl)cc(Cl)c3)(C(F)(F)F)C2)cc1C (stereo not shown) [Compound 120] | ≥ 80% | ≥ 80%
46 | C=CCNS(=O)(=O)c1ccc(C2=NOC(c3cc(Cl)cc(Cl)c3)(C(F)(F)F)C2)cc1C (stereo not shown) [Compound 121] | ≥ 80% | ≥ 80%
47 | FC(F)(F)C1(c2cc(Cl)cc(Cl)c2)CC(c2ccc(SCc3ccccc3)cc2)=NO1 (stereo not shown) [Compound 202] | – | ≥ 80%
